Results on 1 substance are retold here after publication PMC8270898.

Amino acid sequences for entries named in this document (tags omitted).
UniProt Q8N6T7: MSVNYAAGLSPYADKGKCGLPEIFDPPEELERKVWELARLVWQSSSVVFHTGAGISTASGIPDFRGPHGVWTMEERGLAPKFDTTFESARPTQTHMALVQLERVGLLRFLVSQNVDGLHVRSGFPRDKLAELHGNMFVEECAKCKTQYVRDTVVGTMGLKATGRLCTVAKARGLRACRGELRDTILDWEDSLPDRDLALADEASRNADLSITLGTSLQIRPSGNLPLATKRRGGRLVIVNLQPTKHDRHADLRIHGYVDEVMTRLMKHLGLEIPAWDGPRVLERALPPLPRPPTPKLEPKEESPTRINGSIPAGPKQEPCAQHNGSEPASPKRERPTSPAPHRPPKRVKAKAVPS
UniProt Q13283: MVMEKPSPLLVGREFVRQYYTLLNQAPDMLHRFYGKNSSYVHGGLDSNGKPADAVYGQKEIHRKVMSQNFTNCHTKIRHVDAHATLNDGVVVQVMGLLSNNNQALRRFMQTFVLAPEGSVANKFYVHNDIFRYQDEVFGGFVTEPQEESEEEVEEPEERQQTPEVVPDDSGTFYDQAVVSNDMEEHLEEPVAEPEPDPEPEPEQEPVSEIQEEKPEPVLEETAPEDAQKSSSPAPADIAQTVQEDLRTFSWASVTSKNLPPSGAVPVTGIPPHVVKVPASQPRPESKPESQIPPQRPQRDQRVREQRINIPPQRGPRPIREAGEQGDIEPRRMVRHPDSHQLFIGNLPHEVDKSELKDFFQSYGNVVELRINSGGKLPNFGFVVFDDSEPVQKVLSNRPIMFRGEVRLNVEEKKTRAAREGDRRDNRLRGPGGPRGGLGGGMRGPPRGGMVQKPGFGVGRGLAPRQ

No constants are given. Whether binding was seen depends on the method and setting. In cells and extracts the contact can be indirect. A yes stands for co-enrichment or nearness to the bait. Other partners may have been found.

In this assay the target is SIRT6-FLAG (human) (UniProt Q8N6T7). In words: affinity purification with mass spectrometry; SIRT6-FLAG overexpressing and control 293T cells treated with paclitaxel (M phase); anti-FLAG immunoprecipitation, SDS-PAGE, in-gel digestion, LC-MS/MS; SAINT score >= 0.85.

Regarding G3BP1 (from UniProt Q13283 1-466), the binding entry was “binds”.
